# Assay results from patent US20200399369A1.
# Amino acid sequences for entries named in this document (tags omitted). Residues count along the entry.
# UniProt Q5VAN0, residues 44-301: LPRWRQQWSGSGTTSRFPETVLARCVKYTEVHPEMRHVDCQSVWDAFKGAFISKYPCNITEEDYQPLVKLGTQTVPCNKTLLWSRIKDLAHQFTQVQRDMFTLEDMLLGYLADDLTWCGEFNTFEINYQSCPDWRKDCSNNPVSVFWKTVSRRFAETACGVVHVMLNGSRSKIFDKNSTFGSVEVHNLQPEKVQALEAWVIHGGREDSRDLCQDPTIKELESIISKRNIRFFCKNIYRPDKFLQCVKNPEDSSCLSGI
# These are yes or no findings as the source states them, for the method shown. Some results given as binding are weak or reduced against the parent protein; the word gives no strength.
# Target: cynomolgus monkey CD38 (cynomolgus monkey) (UniProt Q5VAN0)
# Assay: ELISA, antigen coated on plate
substance,measurement,value
CD38hhy1195/CD28sup x CD3mid_ENLQ DKTHT IgG4 FALA (from UniProt P0DOX7 1-214),binding,binds
